Some of the results follow. Hit calls seldom repeat between salt and free forms of one compound.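 In K562 cells expressing nanoluciferase-fused kinases, luminescence was recorded at 4 h intervals between 2 and 18 h, normalized as percent of control with DMSO at 100% and a positive control at 0%. A significant (2 sigma) signal drop marks a time point as decreased. The authors' rule for a hit is not shown and takes in more than the number of time points.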

Sequences of proteins named here, by UniProt entry; tags and fusion partners are left off. A change or cut given only in a name is not applied to a line headed by its entry.
UniProt P07949, whole entry, looked up: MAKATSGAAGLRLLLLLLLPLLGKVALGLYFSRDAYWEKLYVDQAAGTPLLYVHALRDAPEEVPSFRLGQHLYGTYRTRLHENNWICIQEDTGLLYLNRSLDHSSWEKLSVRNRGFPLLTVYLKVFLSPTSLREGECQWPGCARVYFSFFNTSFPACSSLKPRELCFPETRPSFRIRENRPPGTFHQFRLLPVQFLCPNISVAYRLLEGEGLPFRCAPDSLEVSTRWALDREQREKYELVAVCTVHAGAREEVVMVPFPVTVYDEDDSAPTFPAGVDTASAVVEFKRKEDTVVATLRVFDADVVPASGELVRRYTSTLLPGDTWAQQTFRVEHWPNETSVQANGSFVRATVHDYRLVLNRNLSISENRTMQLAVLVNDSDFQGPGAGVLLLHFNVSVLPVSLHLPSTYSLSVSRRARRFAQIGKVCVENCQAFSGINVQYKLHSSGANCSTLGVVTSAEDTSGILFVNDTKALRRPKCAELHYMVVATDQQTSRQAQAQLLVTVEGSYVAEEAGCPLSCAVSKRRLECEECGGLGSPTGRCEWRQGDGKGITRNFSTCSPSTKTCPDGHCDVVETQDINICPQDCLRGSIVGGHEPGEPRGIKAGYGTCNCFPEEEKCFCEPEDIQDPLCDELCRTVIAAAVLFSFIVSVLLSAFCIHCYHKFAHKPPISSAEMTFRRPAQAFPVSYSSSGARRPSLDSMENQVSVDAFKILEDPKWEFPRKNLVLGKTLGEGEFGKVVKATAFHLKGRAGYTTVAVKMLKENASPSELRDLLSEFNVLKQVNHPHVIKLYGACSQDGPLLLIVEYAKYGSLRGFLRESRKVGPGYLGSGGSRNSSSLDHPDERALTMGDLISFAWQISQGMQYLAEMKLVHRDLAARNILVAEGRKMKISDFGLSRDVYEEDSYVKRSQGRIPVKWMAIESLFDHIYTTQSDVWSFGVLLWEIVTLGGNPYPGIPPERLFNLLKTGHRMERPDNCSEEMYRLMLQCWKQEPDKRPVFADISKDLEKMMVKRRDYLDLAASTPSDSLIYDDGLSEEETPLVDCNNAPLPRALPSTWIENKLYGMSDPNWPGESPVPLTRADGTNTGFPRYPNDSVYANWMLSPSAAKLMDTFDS
UniProt Q13546: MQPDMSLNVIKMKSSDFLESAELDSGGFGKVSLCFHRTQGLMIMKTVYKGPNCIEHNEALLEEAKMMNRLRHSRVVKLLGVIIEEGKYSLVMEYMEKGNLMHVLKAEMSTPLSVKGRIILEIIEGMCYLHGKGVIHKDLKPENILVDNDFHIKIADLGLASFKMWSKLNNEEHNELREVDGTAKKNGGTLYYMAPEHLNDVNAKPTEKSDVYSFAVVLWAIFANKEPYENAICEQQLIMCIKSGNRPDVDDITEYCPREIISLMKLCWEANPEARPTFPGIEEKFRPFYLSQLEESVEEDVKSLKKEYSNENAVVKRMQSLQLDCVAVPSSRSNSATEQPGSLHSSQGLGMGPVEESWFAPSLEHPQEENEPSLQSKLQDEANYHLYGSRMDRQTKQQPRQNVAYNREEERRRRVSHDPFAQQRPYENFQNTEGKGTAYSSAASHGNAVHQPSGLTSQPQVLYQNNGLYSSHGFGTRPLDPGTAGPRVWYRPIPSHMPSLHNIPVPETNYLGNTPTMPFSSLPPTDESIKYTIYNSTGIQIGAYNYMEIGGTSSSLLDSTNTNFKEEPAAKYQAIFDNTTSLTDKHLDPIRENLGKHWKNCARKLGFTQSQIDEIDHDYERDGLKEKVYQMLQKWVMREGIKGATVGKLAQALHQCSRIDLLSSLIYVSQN
UniProt Q15418, whole entry: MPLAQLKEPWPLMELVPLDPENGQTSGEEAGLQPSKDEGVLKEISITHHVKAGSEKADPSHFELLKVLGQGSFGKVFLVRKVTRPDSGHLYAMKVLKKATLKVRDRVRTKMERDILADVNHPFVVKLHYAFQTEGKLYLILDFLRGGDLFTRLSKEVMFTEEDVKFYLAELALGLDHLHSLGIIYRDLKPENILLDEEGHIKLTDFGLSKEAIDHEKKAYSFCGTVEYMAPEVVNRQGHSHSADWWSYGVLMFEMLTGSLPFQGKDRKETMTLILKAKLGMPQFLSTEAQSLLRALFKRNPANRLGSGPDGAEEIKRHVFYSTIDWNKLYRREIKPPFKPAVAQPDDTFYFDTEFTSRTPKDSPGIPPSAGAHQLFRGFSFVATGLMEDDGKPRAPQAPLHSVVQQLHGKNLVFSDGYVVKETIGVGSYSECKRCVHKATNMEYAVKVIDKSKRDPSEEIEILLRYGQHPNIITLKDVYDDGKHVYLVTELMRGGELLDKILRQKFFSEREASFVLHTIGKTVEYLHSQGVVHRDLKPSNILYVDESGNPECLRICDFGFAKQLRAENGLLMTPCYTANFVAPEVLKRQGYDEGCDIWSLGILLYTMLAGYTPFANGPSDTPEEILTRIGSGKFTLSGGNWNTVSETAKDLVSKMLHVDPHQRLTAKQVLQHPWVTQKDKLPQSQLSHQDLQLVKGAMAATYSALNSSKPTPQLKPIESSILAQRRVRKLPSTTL
UniProt Q15208: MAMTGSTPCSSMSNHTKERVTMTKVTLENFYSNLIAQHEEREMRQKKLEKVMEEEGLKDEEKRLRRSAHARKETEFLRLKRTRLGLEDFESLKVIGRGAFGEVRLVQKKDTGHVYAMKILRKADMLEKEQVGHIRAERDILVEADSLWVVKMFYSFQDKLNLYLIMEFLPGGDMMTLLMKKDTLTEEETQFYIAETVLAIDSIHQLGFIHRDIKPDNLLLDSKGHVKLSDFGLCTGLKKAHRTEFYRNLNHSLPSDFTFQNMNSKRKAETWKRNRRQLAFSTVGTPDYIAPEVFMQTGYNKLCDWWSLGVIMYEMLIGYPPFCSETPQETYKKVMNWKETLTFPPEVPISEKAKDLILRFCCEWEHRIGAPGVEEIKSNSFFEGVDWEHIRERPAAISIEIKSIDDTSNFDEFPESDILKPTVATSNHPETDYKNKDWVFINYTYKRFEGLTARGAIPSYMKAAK
UniProt P42680: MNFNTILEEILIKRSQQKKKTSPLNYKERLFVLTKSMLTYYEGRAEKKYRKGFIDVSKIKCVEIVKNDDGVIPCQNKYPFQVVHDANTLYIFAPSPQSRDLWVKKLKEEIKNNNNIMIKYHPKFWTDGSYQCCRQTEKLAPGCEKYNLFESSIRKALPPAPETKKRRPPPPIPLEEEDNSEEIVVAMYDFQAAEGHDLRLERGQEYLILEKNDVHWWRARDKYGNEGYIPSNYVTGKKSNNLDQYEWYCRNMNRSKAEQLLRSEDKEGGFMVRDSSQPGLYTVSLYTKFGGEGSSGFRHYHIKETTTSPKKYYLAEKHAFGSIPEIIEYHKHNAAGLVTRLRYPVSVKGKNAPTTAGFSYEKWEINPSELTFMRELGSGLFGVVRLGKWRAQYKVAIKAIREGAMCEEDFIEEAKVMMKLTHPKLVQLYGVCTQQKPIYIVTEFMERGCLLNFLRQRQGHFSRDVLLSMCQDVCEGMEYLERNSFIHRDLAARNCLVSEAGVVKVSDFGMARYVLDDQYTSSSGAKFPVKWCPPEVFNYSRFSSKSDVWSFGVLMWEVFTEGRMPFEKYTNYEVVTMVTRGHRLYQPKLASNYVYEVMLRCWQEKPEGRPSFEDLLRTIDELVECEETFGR
UniProt P29597: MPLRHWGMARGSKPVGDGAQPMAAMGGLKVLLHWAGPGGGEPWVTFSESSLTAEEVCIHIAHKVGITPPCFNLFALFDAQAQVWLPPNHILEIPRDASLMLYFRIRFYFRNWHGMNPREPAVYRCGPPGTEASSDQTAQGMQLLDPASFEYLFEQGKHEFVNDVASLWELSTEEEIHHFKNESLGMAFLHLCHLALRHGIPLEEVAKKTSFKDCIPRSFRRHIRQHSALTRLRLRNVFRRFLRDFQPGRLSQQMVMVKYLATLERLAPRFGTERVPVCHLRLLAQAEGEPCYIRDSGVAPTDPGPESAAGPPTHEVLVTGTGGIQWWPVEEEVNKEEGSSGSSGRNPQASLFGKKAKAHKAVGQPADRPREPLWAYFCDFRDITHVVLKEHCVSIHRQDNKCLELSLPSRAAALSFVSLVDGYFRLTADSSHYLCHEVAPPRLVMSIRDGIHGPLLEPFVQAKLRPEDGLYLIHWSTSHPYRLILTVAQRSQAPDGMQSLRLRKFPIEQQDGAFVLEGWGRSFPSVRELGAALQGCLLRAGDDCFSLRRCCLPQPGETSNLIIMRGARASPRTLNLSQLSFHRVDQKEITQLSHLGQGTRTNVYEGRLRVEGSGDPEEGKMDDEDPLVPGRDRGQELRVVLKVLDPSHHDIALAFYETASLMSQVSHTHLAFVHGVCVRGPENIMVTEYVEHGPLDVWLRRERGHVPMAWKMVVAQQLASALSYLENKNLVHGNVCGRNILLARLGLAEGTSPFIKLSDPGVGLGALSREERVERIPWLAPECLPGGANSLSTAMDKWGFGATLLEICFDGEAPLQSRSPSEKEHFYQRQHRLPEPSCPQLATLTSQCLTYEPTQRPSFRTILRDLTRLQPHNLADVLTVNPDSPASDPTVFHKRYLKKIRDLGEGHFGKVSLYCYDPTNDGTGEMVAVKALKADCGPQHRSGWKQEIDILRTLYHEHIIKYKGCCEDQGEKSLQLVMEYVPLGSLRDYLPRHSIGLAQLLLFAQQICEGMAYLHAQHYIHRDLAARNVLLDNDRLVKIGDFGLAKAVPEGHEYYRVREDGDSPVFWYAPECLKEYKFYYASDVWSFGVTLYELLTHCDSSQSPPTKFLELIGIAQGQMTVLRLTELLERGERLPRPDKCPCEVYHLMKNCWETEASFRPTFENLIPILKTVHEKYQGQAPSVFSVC
UniProt Q6PHR2: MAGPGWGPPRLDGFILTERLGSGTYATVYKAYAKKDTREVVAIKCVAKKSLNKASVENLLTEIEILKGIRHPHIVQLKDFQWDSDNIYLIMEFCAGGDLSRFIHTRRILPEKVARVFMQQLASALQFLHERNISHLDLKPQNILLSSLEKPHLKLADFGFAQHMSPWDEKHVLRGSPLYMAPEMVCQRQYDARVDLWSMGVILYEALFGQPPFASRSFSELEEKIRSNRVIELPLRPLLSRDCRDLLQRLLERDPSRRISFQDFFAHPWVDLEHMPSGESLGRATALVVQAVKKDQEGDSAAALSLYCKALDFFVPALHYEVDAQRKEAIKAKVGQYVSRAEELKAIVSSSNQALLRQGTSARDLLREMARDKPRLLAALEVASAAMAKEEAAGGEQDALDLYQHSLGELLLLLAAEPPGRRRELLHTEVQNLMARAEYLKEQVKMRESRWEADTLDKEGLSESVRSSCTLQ
UniProt P07947, whole entry, looked up: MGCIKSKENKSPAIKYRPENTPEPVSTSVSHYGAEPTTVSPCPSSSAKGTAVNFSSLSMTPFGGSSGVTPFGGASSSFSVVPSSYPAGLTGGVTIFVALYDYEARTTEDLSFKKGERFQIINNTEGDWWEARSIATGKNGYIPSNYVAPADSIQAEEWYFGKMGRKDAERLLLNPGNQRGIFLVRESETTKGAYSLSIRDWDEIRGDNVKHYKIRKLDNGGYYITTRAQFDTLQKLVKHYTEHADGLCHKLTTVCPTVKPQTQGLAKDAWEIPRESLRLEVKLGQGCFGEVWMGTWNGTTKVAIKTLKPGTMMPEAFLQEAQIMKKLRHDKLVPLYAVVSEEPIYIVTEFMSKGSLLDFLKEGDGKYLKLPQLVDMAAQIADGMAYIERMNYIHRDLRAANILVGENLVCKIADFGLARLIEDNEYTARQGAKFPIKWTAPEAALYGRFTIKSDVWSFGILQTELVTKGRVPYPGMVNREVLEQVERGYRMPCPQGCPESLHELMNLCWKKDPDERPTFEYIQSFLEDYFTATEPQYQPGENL
UniProt P11802: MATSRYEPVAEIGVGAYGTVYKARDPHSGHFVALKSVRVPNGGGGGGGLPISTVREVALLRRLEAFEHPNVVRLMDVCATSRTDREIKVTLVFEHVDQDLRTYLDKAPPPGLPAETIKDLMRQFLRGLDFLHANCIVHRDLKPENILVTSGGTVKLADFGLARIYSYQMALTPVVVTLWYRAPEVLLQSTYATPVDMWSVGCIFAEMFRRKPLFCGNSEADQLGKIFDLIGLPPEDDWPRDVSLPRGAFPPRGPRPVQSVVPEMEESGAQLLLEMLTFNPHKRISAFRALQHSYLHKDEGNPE
UniProt P50613: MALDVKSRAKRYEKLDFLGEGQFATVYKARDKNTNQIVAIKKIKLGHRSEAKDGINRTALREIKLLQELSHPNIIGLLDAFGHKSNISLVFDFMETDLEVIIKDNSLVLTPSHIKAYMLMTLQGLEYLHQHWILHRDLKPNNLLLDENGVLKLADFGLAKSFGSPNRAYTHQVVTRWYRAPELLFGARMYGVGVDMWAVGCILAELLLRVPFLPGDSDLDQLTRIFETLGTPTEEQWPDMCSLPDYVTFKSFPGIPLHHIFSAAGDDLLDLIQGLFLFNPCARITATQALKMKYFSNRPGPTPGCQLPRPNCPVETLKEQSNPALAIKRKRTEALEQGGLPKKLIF

The target of experiment [1] is RET (UniProt P07949). As to the kind of experiment: kinase-Nluc reporter destabilization hit call (1 = scored as downregulated) (binary); higher = compound decreases kinase abundance. The following applies: K562, 2-18 h.
In experiment [2] the target is RET_M918T (clone: RET_mut) (UniProt P07949). Described as above. The following applies: K562, 2-18 h.
The target in experiment [3] is RIOK1 (UniProt Q9BRS2). Described as above. The settings on record: 2.5 µM; K562; 2-18 h.
Experiment [4] deals with RIPK1 (UniProt Q13546). The experiment is described as above. The settings on record: 2.5 µM; K562; 2-18 h.
The target in experiment [5] is RIPK2 (UniProt O43353). The experiment is described as above. The following applies: 2.5 µM; K562; 2-18 h.
Experiment [6] has as its target ROR2 (UniProt Q01974). The description is as above. The following applies: 2.5 µM; K562; 2-18 h.
Experiment [7] has as its target RPS6KA1 (UniProt Q15418). Described as above. The following applies: 2.5 µM; K562; 2-18 h.
For experiment [8], the target named is SPHK1 (UniProt Q9NYA1). The experiment is described as above. The following applies: K562, 2-18 h.
For experiment [9], the target named is STK24 (UniProt Q9Y6E0). The experiment is described as above. The settings on record: 2.5 µM; K562; 2-18 h.
Experiment [10] concerns the target STK38 (UniProt Q15208). Described as above. The settings on record: K562, 2-18 h.
Experiment [11] addresses SYK (UniProt P43405). The description is as above. The settings on record: K562, 2-18 h.
Experiment [12] concerns the target TEC (UniProt P42680). The experiment is described as above. The settings on record: 2.5 µM; K562; 2-18 h.
In experiment [13] the target is TYK2 (UniProt P29597). The description is as above. The settings on record: K562, 2-18 h.
The target in experiment [14] is ULK3 (UniProt Q6PHR2). Described as above. The following applies: 2.5 µM; K562; 2-18 h.
Experiment [15] has as its target YES1 (UniProt P07947). The experiment is described as above. The settings on record: 2.5 µM; K562; 2-18 h.
In experiment [16] the target is ZAK (UniProt Q9NYL2). The description is as above. The settings on record: 2.5 µM; K562; 2-18 h.
Experiment [17] addresses ZAP70 (UniProt P43403). Described as above. The settings on record: 2.5 µM; K562; 2-18 h.
Experiment [18] concerns the target CDK4 (UniProt P11802). Briefly: number of time points (of 4; 2 h point missing) at which kinase-Nluc abundance scored as decreased, DMSO-normalised (count); higher = more persistent destabilization. The following applies: K562, 2-18 h.
Experiment [19] addresses CDK7 (UniProt P50613). The experiment is described as above. The following applies: K562, 2-18 h.
Experiment [20] deals with SRC (UniProt P12931). As to the kind of experiment: kinase-Nluc reporter destabilization hit call (1 = scored as downregulated) (binary); higher = compound decreases kinase abundance. The settings on record: K562, 2-18 h.

With `C=CC(=O)N1CCC[C@@H](n2nc(-c3ccc(Oc4ccccc4)cc3)c3c(N)ncnc32)C1` [Ibrutinib], the “kinase-Nluc reporter destabilization hit call” value in experiment [1] (2.5 µM), in [2] (2.5 µM), in experiment [3], in [4], in experiment [5] and in experiment [6] was inactive: 0 each time. Besides, the “kinase-Nluc reporter destabilization hit call” value in experiment [7], in experiment [8] (2.5 µM), in experiment [9], in experiment [10] (2.5 µM), in experiment [11] (2.5 µM) and in experiment [12] was inactive: 0 each time. Moreover, the “kinase-Nluc reporter destabilization hit call” value in experiment [13] (2.5 µM), in experiment [14], in experiment [15], in [16] and in experiment [17] was inactive: 0 each time. For the same compound, the “number of time points” value in experiment [18] (2.5 µM) and in experiment [19] (2.5 µM) was 0 throughout.

On to `CC1(C)CNc2cc(NC(=O)c3cccnc3NCc3ccncc3)ccc21` [Motesanib], for which the “kinase-Nluc reporter destabilization hit call” value in experiment [3], in experiment [4], in experiment [5], in [6], in experiment [7] and in experiment [8] (2.5 µM) was inactive: 0 throughout. For the same compound, the “kinase-Nluc reporter destabilization hit call” value in experiment [20] (2.5 µM), in [9], in [10] (2.5 µM), in [11] (2.5 µM), in experiment [12] and in experiment [13] (2.5 µM) was inactive: 0 in each case. The “kinase-Nluc reporter destabilization hit call” value in experiment [14], in experiment [15], in experiment [16] and in experiment [17] was inactive: 0 in each case. The “number of time points” value in experiment [18] (2.5 µM) and in experiment [19] (2.5 µM) was 0 each time.

Take `Cc1cc(Nc2cc(N3CCN(C)CC3)nc(/C=C/c3ccccc3)n2)n[nH]1`: the “kinase-Nluc reporter destabilization hit call” value in [1] (2.5 µM), in experiment [2] (2.5 µM), in experiment [3], in experiment [4], in experiment [5] and in [6] was inactive: 0 throughout. Besides, the “kinase-Nluc reporter destabilization hit call” value in [7], in [8] (2.5 µM), in [20] (2.5 µM), in [9], in experiment [10] (2.5 µM) and in [12] was inactive: 0 in each case. For the same compound, the “kinase-Nluc reporter destabilization hit call” value in experiment [13] (2.5 µM), in [14], in experiment [15], in [16] and in [17] was inactive: 0 throughout. The “number of time points” value in [18] (2.5 µM) and in experiment [19] (2.5 µM) was 0 each time.

As to `N#CC(=Cc1cc(Cl)cc(Cl)c1)c1cccnc1`, the “kinase-Nluc reporter destabilization hit call” value in experiment [1] (10 µM), in experiment [2] (10 µM), in experiment [8] (10 µM), in [20] (10 µM), in experiment [10] (10 µM) and in [11] (10 µM) was inactive: 0 in each case. Moreover, in experiment [13] (10 µM), the “kinase-Nluc reporter destabilization hit call” value was inactive: 0. Further, the “number of time points” value in experiment [18] (10 µM) and in [19] (10 µM) was 0 each time.

As for `O=C1NCCc2[nH]c(-c3ccncc3)cc21`, the “kinase-Nluc reporter destabilization hit call” value in experiment [1] (2.5 µM), in experiment [2] (2.5 µM), in experiment [3], in experiment [4], in [5] and in experiment [6] was inactive: 0 throughout. Moreover, the “kinase-Nluc reporter destabilization hit call” value in [7], in experiment [8] (2.5 µM), in experiment [20] (2.5 µM), in experiment [9], in [10] (2.5 µM) and in [12] was inactive: 0 each time. Further, the “kinase-Nluc reporter destabilization hit call” value in experiment [13] (2.5 µM), in experiment [14], in experiment [15], in experiment [16] and in experiment [17] was inactive: 0 in each case. Also, the “number of time points” value in experiment [18] (2.5 µM) and in experiment [19] (2.5 µM) was 0 each time.

Take `CCN(CC)CCNC(=O)c1c(C)[nH]c(/C=C2\C(=O)Nc3ccc(F)cc32)c1C` [Sunitinib]: the “kinase-Nluc reporter destabilization hit call” value in experiment [1] (2.5 µM), in [2] (2.5 µM), in experiment [3], in experiment [4], in [5] and in experiment [6] was inactive: 0 throughout. Besides, the “kinase-Nluc reporter destabilization hit call” value in experiment [7], in [8] (2.5 µM), in experiment [9], in experiment [10] (2.5 µM), in experiment [12] and in [13] (2.5 µM) was inactive: 0 in each case. The “kinase-Nluc reporter destabilization hit call” value in [14], in [15] and in experiment [17] was inactive: 0 in each case. For the same compound, the “number of time points” value in [18] (2.5 µM) and in experiment [19] (2.5 µM) was 0 each time.

These data come from the supplement of paper PMC12823440, “Inhibitors supercharge kinase turnover through native proteolytic circuits” (Nature, 2025).
